# The whole screen tested about 320,000 compounds, of which about 480 (0.15%) were called active. The inconclusive results got no clear call from the source; some entries with a clear call stand among them for comparison. No stated cut-off is given here; in the data, active means inhibition above about 26% (passing the limit was not always enough); inconclusive means no clear call, values can overlap the other calls.
# Protein sequences, listed by entry. Tags and fused reporters are not part of them.
# UniProt O15379, whole entry, looked up: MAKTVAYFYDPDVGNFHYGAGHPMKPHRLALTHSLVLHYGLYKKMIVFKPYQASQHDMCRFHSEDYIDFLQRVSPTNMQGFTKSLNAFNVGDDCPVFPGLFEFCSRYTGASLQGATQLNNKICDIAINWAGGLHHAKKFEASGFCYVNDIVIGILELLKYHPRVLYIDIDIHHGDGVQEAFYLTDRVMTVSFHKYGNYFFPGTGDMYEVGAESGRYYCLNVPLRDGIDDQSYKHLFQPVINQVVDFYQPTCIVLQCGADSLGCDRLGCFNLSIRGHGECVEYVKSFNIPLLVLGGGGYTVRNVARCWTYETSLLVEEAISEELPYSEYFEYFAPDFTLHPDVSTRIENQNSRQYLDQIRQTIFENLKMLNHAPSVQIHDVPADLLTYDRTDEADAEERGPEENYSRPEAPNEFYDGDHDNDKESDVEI
# Target: Histone deacetylase 3 (Homo sapiens) (UniProt O15379)
# Assay: HDAC3 deacetylase inhibitors, primary screen, biochemical, fluorescence, cell-free homogeneous (AID 2718)
# Settings: recombinant HDAC3, fluorogenic peptide/trypsin coupled, at 8.3 µM, stronger effect = higher value
row,Structure (SMILES),inhibition
1,COc1ccc(/C=N/OCC(=O)Nc2nc3ccccc3s2)cc1,inactive: -4.17%
2,CN(C)C(=O)NC(O)C(Cl)Cl (configuration not stated),inconclusive: 17.1%
3,C[N+](C)(C)CCN(Cc1ccc(Cl)cc1)c1ccccn1,inconclusive: 9.36%
4,Cc1[nH]c2ccccc2c1/C=C(\C#N)S(=O)(=O)c1ccccc1,inactive: -6.51%
5,CCN(c1ccccc1)S(=O)(=O)c1cccc(C(=O)OCC(=O)Nc2ccc(NC(C)=O)cc2)c1,inconclusive: 21.5%
6,Cc1occc1-c1nnc(SCC(=O)NC(C)(C)C)n1C(C)c1ccccc1 (configuration not stated),inconclusive: 13.4%
7,CCc1ccc(Nc2nc(N)nc(CSc3nc4ccccc4s3)n2)cc1,inconclusive: 24.9%
8,Cc1cc(C)[n+]2n1C(=O)C(c1ccccc1)=C2[O-],inconclusive: 19.2%
9,CC(c1ccco1)N(C(=O)c1ccccc1NS(=O)(=O)c1cc([N+](=O)[O-])ccc1Cl)c1ccccn1 (configuration not stated),inconclusive: 14.7%
10,COc1ccc(NCc2nnc(SCC(=O)c3ccc(OC)cc3)o2)cc1,active: 41.1%
11,CN=c1scc(C)n1/N=C/c1cc(Br)c(O)c(Br)c1,inactive: 0.246%
12,CCOc1cc(CNCCc2ccccc2)ccc1OCC(=O)NC(C)(C)C,inconclusive: 11.7%
13,Cc1ccc2c(c1)c1c3n2CCCNC3CCC1 (configuration not stated),inactive: 4.56%
14,COc1ccc(C(CC(=O)c2ccccc2)S(=O)(=O)c2ccccc2)cc1 (configuration not stated),inconclusive: 18.9%
15,O=S(=O)(Nc1nc2c(s1)CCCC2)c1ccc(F)cc1,inconclusive: 26.6%
16,Cc1cccc(C)c1NC(=O)CN1CCN(C(=O)c2ccc(OCc3cn4ccccc4n3)cc2)CC1,inactive: -14.9%
17,COc1ccc(C2NC(=O)N(CCCC(=O)O)C(C)=C2C(=O)OCc2ccccc2)cc1 (configuration not stated),inconclusive: 16.3%
18,CSc1ccc2c(c1)C(N1CCN(C)CC1)Cc1ccccc1S2 (configuration not stated),inconclusive: 15.3%
19,COc1ccc2[nH]cc(C(=O)CCl)c2c1,inactive: 1.84%
20,C=CCn1c(COc2ccccc2F)nnc1SCC(=O)NC(=O)NCc1ccco1,inconclusive: 22.8%
21,C[C@H](NC(=O)c1nc[nH]c1C(=O)N[C@@H](CCCCNC(=O)OC(C)(C)C)C(=O)OC(C)(C)C)C(=O)OCc1ccccc1,inconclusive: 21.8%
22,CCOc1cccc(N(C(=O)CCC(=O)Nc2cc(C)on2)C(C(=O)NC(C)(C)C)c2ccc(OC)cc2)c1 (configuration not stated),inactive: 6.4%

row,Structure (SMILES),inhibition
1,Cc1ccc(NC2Sc3ccccc3NC2=O)cc1 (configuration not stated),inconclusive: 24.4%
2,COc1ccc(N(CC(=O)Nc2ccc3c(c2)OCO3)S(=O)(=O)c2ccccc2)c(OC)c1,inactive: 3.24%
3,Nc1ncnc(NCc2ccc(F)cc2)c1[N+](=O)[O-],inconclusive: 15.8%
4,CCOC(=O)c1ccc2c(c1)nc(SCc1cn3ccsc3n1)n2CC,inconclusive: 25.3%
5,CC1CCCC(C)N1C(=O)Cn1nnc(-c2ccccc2)n1 (configuration not stated),inconclusive: 17.4%
6,C[C@H](NC(=O)c1nc[nH]c1C(=O)NCc1ccc(CNC(=O)OC(C)(C)C)cc1)C(=O)OC(C)(C)C,inconclusive: 12.8%
7,CN(C)c1cccc(C(=O)NN2C(=O)NC3(CCCCC3)C2=O)c1,inactive: -2.07%
8,CCOc1ccc(NC(=O)C23CC4CC(C2)CC(c2ccccc2)(C4)C3)cc1,inactive: -2.52%
9,CSc1ccc(C=NNc2ccc(S(=O)(=O)Nc3ccccc3C(=O)O)cc2[N+](=O)[O-])cc1,inconclusive: 25.4%
10,CCCC(=O)NC(NC1CCS(=O)(=O)C1)C(Cl)(Cl)Cl (configuration not stated),inconclusive: 15.6%
11,O=C(NCCc1ccc(Cl)cc1)C1CCC(=O)N(C2CCCCCC2)C1 (configuration not stated),inconclusive: 14.6%
12,CC(=O)c1ccc(Oc2cc(C)nc(N3CCOCC3)n2)cc1,inconclusive: 12.4%
13,COc1cc(NC(=O)C/C(C)=N/NC(=O)c2ccccn2)c(OC)cc1Cl,inactive: -3.93%
14,Cc1ccc(S(=O)(=O)CC(=O)Nc2nc(-c3ccccc3)cs2)cc1,inconclusive: 31.7%
15,CN(c1ccc(OCC(=O)OCc2nnc(-c3ccccc3)o2)cc1)S(=O)(=O)c1ccc(Cl)cc1,inconclusive: 20.3%
16,CN1C(=S)SC(/[N+]([O-])=C\c2ccco2)C1(C)C (configuration not stated),inconclusive: 24.5%
17,CC(C)OCCCNC(=O)c1ccccc1Oc1ccccc1,inconclusive: 23.8%
18,CCCn1c2ccccc2c2cnn(CC(=O)NC3CCCCC3)c(=O)c21,inconclusive: 18.8%
19,Cc1ccc(-c2ccc3nnc(SCC(=O)NCC4CCCO4)n3n2)cc1 (configuration not stated),inconclusive: 25.4%
20,CC(C)(C)OC(=O)NCCCC[C@H](NC(=O)c1nc[nH]c1C(=O)NCc1ccc(CNC(=O)OC(C)(C)C)cc1)C(=O)OC(C)(C)C,inconclusive: 34.9%
21,CC1CCN(C(=O)c2cc(-c3ccc4c(c3)OCO4)on2)CC1,inactive: 3.33%
22,COC(=O)CSc1nnc(CNC(=O)c2ccc(S(=O)(=O)N(C)C)cc2)n1C,inconclusive: 14.8%

# At a glance, some entries already given.
row,Structure (SMILES),inhibition
6,C[C@H](NC(=O)c1nc[nH]c1C(=O)NCc1ccc(CNC(=O)OC(C)(C)C)cc1)C(=O)OC(C)(C)C,inconclusive: 12.8%
7,CN(C)c1cccc(C(=O)NN2C(=O)NC3(CCCCC3)C2=O)c1,inactive: -2.07%
8,CCOc1ccc(NC(=O)C23CC4CC(C2)CC(c2ccccc2)(C4)C3)cc1,inactive: -2.52%
9,CSc1ccc(C=NNc2ccc(S(=O)(=O)Nc3ccccc3C(=O)O)cc2[N+](=O)[O-])cc1,inconclusive: 25.4%
10,CCCC(=O)NC(NC1CCS(=O)(=O)C1)C(Cl)(Cl)Cl (configuration not stated),inconclusive: 15.6%

# Remaining list, next part

row,Structure (SMILES),inhibition
1,C=CCn1c(C)cc(C(=O)COC(=O)CNC(=O)c2ccccc2)c1C,inactive: -0.0487%
2,Cc1ccc(C)c(NC(=O)c2cc3ccccn3n2)c1,inactive: 3.41%
3,Cc1cccc(NC(=O)N2CCCC2C(=O)NCc2cccs2)c1 (configuration not stated),inconclusive: 38.9%
4,COc1cc2c(cc1OC)C(C(=O)NCc1ccco1)C(c1cccs1)N(C)C2=O (configuration not stated),inconclusive: 28.8%
5,OC(COc1ccc2ccccc2c1)CN1CCN(c2ccc(F)cc2)CC1 (configuration not stated),inactive: -0.0219%
6,O=C(Nc1nc(-c2ccccc2)cs1)Nc1ccc(F)cc1F,inactive: -2.15%
7,Cc1ccc(NC(=O)c2cc(NC(=O)c3ccccc3C(=O)O)ccc2N2CCCCC2)cc1,inactive: -2.32%
8,CCCn1c(SCC(=O)N(CC)CC)nnc1-c1ccncc1,inconclusive: 13.5%
9,NC(=O)c1cc(S(=O)(=O)NCCCc2ccco2)cs1,inconclusive: 21.7%
10,CCn1c(SCC(=O)Nc2ccccc2-c2ccccc2)nnc1-c1ccoc1C,inconclusive: 19%
11,COc1ccc(C(=O)O/N=C2\CCS(=O)(=O)c3sccc32)cc1,active: 52.1%
12,COc1cc(-c2noc(CCCC(=O)Nc3cccnc3)n2)cc(OC)c1OC,inactive: 4.53%
13,O=C(NCc1ccccc1C(F)(F)F)C1CC(c2ccccc2[N+](=O)[O-])=NO1 (configuration not stated),inactive: 12.2%
14,Cc1[nH]c2ccccc2c1C(=O)NS(=O)(=O)Nc1ccccc1,inconclusive: 17.4%
15,COc1cc(C#Cc2ccc3cc(C(C)(C)O)oc(=O)c3c2)cc(OC)c1,inactive: -8.7%
16,COc1ccc(N(CC(=O)Nc2nc3ccc(C)cc3s2)S(=O)(=O)c2c(C)nn(C)c2C)cc1,inconclusive: 20.5%
17,Cc1ccc(N2C(=O)CC(Sc3ccccc3C(=O)O)C2=O)c([N+](=O)[O-])c1 (configuration not stated),inconclusive: 23.5%
18,COC(=O)CNC(c1ccccc1)c1cc(Br)ccc1NC(=O)CNC(=O)OCc1ccccc1 (configuration not stated),inactive: -2.31%
19,Nc1ccc(C(=O)Nc2ccc3nc(-c4ccncc4)[nH]c3c2)cc1,inactive: 7.81%
20,Cc1ccc2c(c1)N(CC(=O)N1CCN(c3nc4ccccc4s3)CC1)C(=O)C(C)O2 (configuration not stated),inconclusive: 26.4%
21,O=C(NC(NC(=S)Nc1c(Cl)cccc1Cl)C(Cl)(Cl)Cl)c1cccc([N+](=O)[O-])c1 (configuration not stated),inconclusive: 19.4%
22,CCNC(=O)C(=O)c1c(-c2ccccc2)[nH]c2ccccc12,inconclusive: 15.6%

row,Structure (SMILES),inhibition
1,Cc1ccccc1NC(=O)c1cccc(N2C(=O)C3C4CC(C(Br)C4Br)C3C2=O)c1 (configuration not stated),inconclusive: 13.7%
2,O=C(c1ccco1)N1CCN(C(=O)c2ccccc2OCc2ccc(Cl)cc2)CC1,inconclusive: 10.6%
3,CC(C)Cn1c(=O)oc2ccccc21,inconclusive: 23.6%
4,Cc1nc(Nc2ccccc2Cl)sc1C(=O)Nc1ccccc1,inconclusive: 20.1%
5,CC(C)SCCCCOc1ccc2ccccc2c1,inconclusive: 20.6%
6,Cc1ncc(CC(=O)n2cc(C(=O)c3cc(F)ccc3O)cn2)s1,inconclusive: 25.8%
7,CCOC(=O)C1CCN(C(=S)Nc2ccccc2)CC1,inactive: -8.31%
8,Brc1ccc(-c2cn3cccnc3n2)cc1,inactive: 1.55%
9,COc1ccc(NC(=O)CNc2ccc(C#N)cc2)cc1,inconclusive: 12.6%
10,C/C(N)=C(/C#N)C(=O)CSc1nc2ccccc2c(=O)n1Cc1ccc(F)cc1,inconclusive: 12.8%
11,CCOC(=O)c1nc(C)sc1-c1ccnn1S(=O)(=O)c1cccc(Cl)c1,inconclusive: 15.4%
12,O=C(N=C1SC2CS(=O)(=O)CC2N1c1ccc(F)cc1F)C1CC1 (configuration not stated),inactive: -4.09%
13,O=C(Nc1ncccc1O)c1ccc2c(c1)OCO2,active: 86.5%
14,COc1ccc(OCCNC(=O)Nc2cc(F)c(F)cc2Cl)cc1,inactive: 1.14%
15,CCOc1nc2c(c(=O)n(C)c(=O)n2C)n1Cc1ccccc1Cl,inconclusive: 25.8%
16,CCc1ccc(N(C(=O)c2ccoc2C)C(C(=O)NC2CCCC2)c2ccc(OC)cc2)cc1 (configuration not stated),inconclusive: 16.9%
17,COc1ccc(-c2csc(Nc3ccccn3)n2)cc1OC,inconclusive: 19.5%
18,CCN(CC)S(=O)(=O)c1ccc(NC2c3ccccc3C(=O)N2Cc2ccc3c(c2)OCO3)cc1 (configuration not stated),inconclusive: 23.2%
19,COc1cccc(C(=O)N/N=C2/SCC(=O)N2CCc2ccc(OC)c(OC)c2)c1,inconclusive: 14.8%
20,C/C(=N/NC(=O)CNS(=O)(=O)c1ccccc1)c1ccc(Br)cc1,inactive: -0.543%
21,COC(=O)Cn1c2c(c3cc(C)ccc31)CCCC2,inactive: -2.88%

# Another view of part of the listing above:
row | Structure (SMILES) | inhibition
13 | O=C(Nc1ncccc1O)c1ccc2c(c1)OCO2 | active: 86.5%
14 | COc1ccc(OCCNC(=O)Nc2cc(F)c(F)cc2Cl)cc1 | inactive: 1.14%

# Source: PubChem BioAssay AID2718 (Broad Institute, 2010)
